Data reported in patent publication US20050215770A1.
No constants are given. Whether binding was seen depends on the method and setting. Some results given as binding are weak or reduced against the parent protein; the word gives no strength. Where a sequence is shown, tags or fusion partners need not be part of it.

T1: Recombinant soluble human Flag-tagged NogoR (amino acids 1 to 309 of SEQ ID NO:2) (human) (UniProt Q9BZR6)
T1 sequence (chain, biotinylated with Sulfo-NHS-LC-Biotin): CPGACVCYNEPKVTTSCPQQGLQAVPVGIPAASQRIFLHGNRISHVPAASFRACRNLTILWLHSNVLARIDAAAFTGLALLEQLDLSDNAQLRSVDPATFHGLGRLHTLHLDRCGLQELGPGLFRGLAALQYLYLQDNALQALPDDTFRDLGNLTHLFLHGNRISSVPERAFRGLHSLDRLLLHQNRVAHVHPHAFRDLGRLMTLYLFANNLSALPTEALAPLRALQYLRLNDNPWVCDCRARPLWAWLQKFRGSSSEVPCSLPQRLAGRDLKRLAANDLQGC


Target: T1, Recombinant soluble human Flag-tagged NogoR (amino acids 1 to 309 of SEQ ID NO:2) (human)
Assay: ECL phage screen (Example 1)

Binder | binding
NGF1A05 (scFv) scFv: EVQLVQSGGGLVQPGGSLRLSCAASGFGFSSYWMNWVRLAPGKGLEWVASIKQDGSEMFYVDSVKGRFTISRDNAKNSLSLQMNSLRAEDTAVYYCARDLVRITLVGVITKSYGMDVWGRGTMVTVSSGGGGSGGGGSGGGGSALDVVMTQSPDSLAVSLGERATINCKSSQSVLYSSNNQNYLAWYQQRPGQPPKMLIYGASTRASGAPDRYSGGGSGTDFTLTISSLQPEDVAVYYCQQYYSLPITFGQGTRLEIKR | binds
NGF1B02 (scFv) scFv: EVQLVQSGAEVKKPGSSVKVSCKASGDTSSEYSITWVRQVPGQGLEWMGGIIPIFGATYYAQNFQGRVTISADESTSTAYMELGSLRSGDTAVYYCATVIPPTIGGVTHDSEGMDVWGRGTLVTVSSGGGGSGGGGSGGGGSAQSVLTQPPSASGTPGQRVTISCSGSSSNIGSNYVYWYQQLPGTAPKLLIYRNNQRPSGVPDRFSGSKSGTSASLAISGLRSEDEADYYCAAWDDGHNGWVFGGGTKVTVLG | binds
NGF1B03 (scFv) scFv: EVQLVQSGAEVKKPGESLRISCKGSGYSFSSYWISWVRQVPGKGLEWMGRIDPSDSYTNYSPSFQGHVTISADKSISTAYLHWSSLKASDTAMYYCATLASADTGMVTDYKYYDMDVWGRGTLVTVSSGGGGSGGGGSGGGGSAQSVVTQPPSVSAAPGQKVTISCSGSNSNIGKNYVSWYQQLPGTAPKLLISDNNARPSGIPDRFSGSKSGASGTLDITGLQTGDEAAYYCKSWDSSLRAEVFGGGTKLTVLG | binds
NGF1B09 (scFv) scFv: EVQLVQSGAEVKKSGSSVKVSCKASGDIFTNYAINWVRQAPGQGLEWMGRILPLFGTTNYAQRFQGRITITADESTGTAYMELSSLKSDDTAVYYCARPLSGDYYDTSGYHWWGKGTLVTVSSGGGGSGGGGSGGGGSAQSVLTQPPSASGTPGQRVTISCSGRSGNIGTNAVNWYQQLPGAAPKLIIYSNSQRPSGVPHRFSASRSGTSASLAISGLQSEDEADYYCSAWDDSLDGVVFGGGTKVTVLG | binds
NGF1C10 (scFv) scFv: EVQLVQSGAEVKKPGESLKISCKGSGYNITNHWIAWVRQMPGKGLEWMGMIYPDDSDTRYSPSFQGQVTMSADKSINTAHLQWRSLKASDTAMYYCARHAHYDGSGYYYFDYWGKGTMVTVSSGGGGSGGGGSGGGGSAQSVLTQPPSVSGAPGQRVTISCTGSRSNIGAGYDVHWYQQLPGTAPKVLIFGNSNRPSGVLDRFSGSKSGTSASLAITGLQAEDEADYYCRSYDSSMSGSRVFGTGTKVTVLG | binds
NGF1D09 (scFv) scFv: QLQLQESGSGLVKPSQTLSLTCAVSGGSISSGDYSWSWIRQPPGKGLEWIGYIYHSGSTYYNPSLKSRVTISIDRSKNQFSLKLSSVTAADTAVYYCARVGDYKEIDAFDIWGKGTLVTVSSGGGGSGGGGSGGGGSAQPVLTQPPSASGTPGQRVTISCSGSSSNIGTNTVNWYQQLPGTAPKLLIYSNTQRPSGVPDRFSGSKSGTSASLAISGLQSEDEADYYCGAWDDSLISGVFGGGTKLTVLG | binds
NGF1E09 (scFv) scFv: EVQLVETGAEVRKPGSSVKVSCKASGGIFKKYAFSWVRQAPGQGLEWLGRTIPSIGNNNYIQSLKGRVTLTADESTNTVYMDLRNLRSEDTAIYFCAGAPKRFGESPNLWGRGTLVTVSSGGGGSGGGGSGGGGSAQAVVIQEPSLSVSPGGTVTLTCGLSSGSVSTTNYPTWYQQTPGQSPRTVIYDTYTRSSGVPDRFSGSILGNKAALTITGAQADDESDYYCAFYLGEGISVFGGGTKLTVLG | binds
NGF1G03 (scFv) scFv: QVQLQESGPGLVKPSETLSLTCTVSGDSIGSSIYYWAWIRQPPGKGLEWIGRIYYSGTTNYNPSLKSRVTMSVDTSKNQFSLKLSSVTAADTAVYYCARSKGTKWERREFDYWGRGTMVTVSSGGGGSGGGGSGGGGSAQAVLTQPSSASGTPGQTVTISCSGSSSNIGSNPAHWYQQFPGTAPTLIIYYDGRRPSGVPDRFSGSKSGTSASLAISGLQSEDEADFYCASWDDNLNEYVFGTGTKVTVLG | binds
NGF1H02 (scFv) scFv: QVQLVQSGGGLLQPGRSLRLSCAGSGFSFRDHALSWFRQAPGKGLEWVGFIRSKGYGGTTEYAASMAGRLNISRDDSKSIAYLQVNSLKTEDTAVYYCSRDSDYYASSGMGYAFDMWGKGTMVTVSSGGGGSGGGGSGGGGSAQAVLTQPSSVSGAPGQRVTIPCTGSSSNIGAGYGVHWYQQLPGTAPKLLIYDSDKRPSGVPDRFSGSKSGSSGSLAITGLQPEDEADYYCQSYDSSLSGSNVFGTGTKVTVLG | binds
NGF1H06 (scFv) scFv: QVQLQQSGPGLVKPSETLSLTCTVSGDSITSYYWSWVRQPPGKTLEWIGYIFDTRTTKYNPSLKSRVTISADTSKNQFSLKLSSVTAADTAVYYCARDAGTIFDYWGQGTMVTVSSGGGGSGGGGSGGGGSAQSVLTQPPSVSVAAGQTARITCGEANIGRRSVHWYQRRPGQAPLMVIYYDTARRSGIPERFSGSNSGDTATLTISRVEAGDEADYYCQAWDFSSDHPVFGGGTKVTVLG | binds
NGF2D02 (scFv) scFv: EVQLVQSGAEVKKPGSSVKVSCKASGGTLSSYAINWVRQAPGQGLEWMGQIIPMFGTMNYAQKFQGRVTISADESTGTAYMELSSLRYDDTATYYCAREVSGTRNYYYYGLDVWGQGTLVTVSSGGGGSGGGGSGGGGSAQAVLTQPSSVSGAPGQRVTIPCTGSSSNIGAGYDVHWYQHLPGTAPKLLIYGNINRPSGVPDRFSGSKSGTSASLAITGLQAEDEADYYCQSYDNRLSVSVVFGGGTQLTVLS | binds
NGF2D08 (scFv) scFv: QLQLQESGPGLVKPSETLSLTCDVSGSSISSAYYWGWVRHSPGKGLEWIGSSYNNGPAYYNPSLIRRVTTSRDTSKNQVSLKMTSMTAADTAVYYCARGLRDSSGYYFGGYYFDLWGQGTLVTVSSGGGGSGGGGSGGGGSAQAVLTQPSSLSASPGALASLTCTLRSGINVTSYRIYWHQQKPGSPPQYLLRYKSDSDKQQGSGVPSRFSGSKDASANAGILLISGLQSEDEADYYCLIWHNSAVVFGGGTKLTVLG | binds
NGF2E08 (scFv) scFv: QVQLQESGPGLVRPSETLSLTCTVSGSSVTSPYYWAWVRQPPGKALEWIASIYHSGSTHYNPSLKSRVTVSMDTSNNRFSLKVTSVTVTDTAVYYCARHASSYYGSFVQYHYYGLQVWGKGTLVTVSSGGGGSGGGGSGGGGSALVVVMTQSPVSLPVTRGQPASISCRSTEGLVYSDGNTYLNWFQQRPGQPPRRLVYQVSRRDPGVPDRFSGSGSGTDFTLEISRVEAEDLGIYFCMQGTHWPYTFGQGTKVEIKR | binds
NGF2E11 (scFv) scFv: QVQLVQSGGGVVQPGRSLRLSCAASGLSFSSYGMHWVRQAPGKGLEWVAVIWFDGSNKYYADSVKGRFTISRDTSKNTLYLQMNSLRVEDTAVYYCAGEVRGSFGEFDYWGRGTMVTVSSGGGGSGGGGSGGGGSAQSVLTQPPSVSVAPGKTARITCGGNNVESKSVQWYQQKSGQAPVLVIYYNSYRPSGIPERFSGSNSGNTATLTISRVEAGDAADYYCQVWDSTTDHYVFGSGTKVTVLG | binds
NGF2F11 (scFv) scFv: QVQLVESGGGLVQPGGSLRLSCAASGFTFSSYWMSWVRQAPGKGLEWVANIKQDGSEKYYVDSVKGRFTISRDNAKSSLYLQMNSLRAEDTAVYYCARPQEPPSSLIAHWGQGTMVTVSSGGGGSGGGGSGGGGSAQSVVTQPPSVSAASGQKVTISCSGRTSNIGNNYVSWYQQIPGTAPKLLLYDNNKRPSGIPDRFSGSKSGTIAILGITGLQTGDEADYFCGVWDSSLSSYVFGSGTKVTVLG | binds
NGF2G10 (scFv) scFv: EVQLVESGAEVKKPGASVKVSCKTSGYIFSTYGITWVRQAPGQGLEWMGWISSKNGNTNYAQKFQGRVTMTTDTSTSTAYMELSSLTSDDTAVYYCARDSAYYYDSSGIGNWFDPWGKGTLVTVSSGGGGSGGGGSGGGGSAQAVLTQPSSVSGAPGQRVTISCTGSSSNIGAGYDVHWYQKLPDTGPKLLIFGNVIRPSGVPDRFSGSKSGTSASLAITGLQAEDEAEYFCQSYDTTLSGSVVFGGGTKLTVLG | binds
NGF3D11 (scFv) scFv: EVQLVESGAEVKKPGSSVKVSCHVSGGTFGGNAFNWVRQAPGQGLEWMGRVIPIYGTSNYAQRFQGRVSITADESTDTAYMELSSLTSDDTAIYYCARDPGSGPYLSYFDSWGRGTLVTVSSGGGGSGGGGSGGGGSAQAVLTQPSSASGTPGQRVTISCSGTYSNIASNTVNWYQQLPGTAPKLLIYNNRQRPSGVPDRFSGSKSGTSASLAISGLQSEDETDYFCAAWDDALNGYVFGTGTKVTVLG | binds
NGF3H03 (scFv) scFv: EVQLVETGGGVVQPGRSLRLSCAASGFGFRNSAMHWVRQAPGKGLEWVALIWSDGITKFYADSVKGRLTVSRDNSESTLYLQINSLRDEDTAVYYCARDGHYSVGFGFDVWGQGTMVTVSSGGGGSGGGGSGGGGSALNFMLTQPHSVSESPGKTVTISCTRSSGSIASNYVQWYQQRPGSAPTTVIYEDNQRPSGVPDRFSGSIDSSSNSASLTISGLKTEDEADYYCQSYDSSNQGVFGGGTKLTVLG | binds
NGF3C11 (scFv) scFv: QVQLQESGPGLVKPSGTLSLTCAVTGDSITSNNWWSWVRQAPGKGLEWIGDVYHTGTTNYNPSLKSRVTISVDESKNQFSLKVTSVTTADTAVYYCAREEYDVWSGPMDVWGQGTLVTVSSGGGGSGGGGSGGGGSAQAVLTQPSSVSGAPGQRVSISCTGSSSNIGAGYDVHWYQQLPGTAPKLLIYGNINRPSGVPDRFSGSKSGTSASLAITGLQAEDEADYYCQSYDSSLRAAVFGGGTKLTVLG | binds
